The source of these data is article PMC9900698, “Phosphorylation Regulation of a Histone-like HU Protein from Deinococcus radiodurans”.

The series deals with T1, DrHU WT (Deinococcus radiodurans R1 (ATCC13939)) (UniProt Q9RZ89).
T1 sequence (looked up): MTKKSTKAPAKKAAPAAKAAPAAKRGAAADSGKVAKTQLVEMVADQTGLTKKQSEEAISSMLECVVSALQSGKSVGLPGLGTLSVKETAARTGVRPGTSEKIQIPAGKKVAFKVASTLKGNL
The series is described as follows: hydroxyl radical protection. To be noted: recombinant protein, residues 1-122, protein details: N-terminal His-MBP (pET28a-HMT), removed by TEV.

For at least one entry, the source does not settle the construct or the ends of the probe. At least one verdict was read from the data and is not stated in words by the source. Tags and fusion partners may be left off the protein sequences shown.

In the case of “AAGCTTGCCACCATGTACCCATACGACGTACCAGATTACGCTTTCATCAACGGCTACGCCCCTCAGAATCTGAGCATCAGAGGCGAGTACCAGATCAACTTTCACATCGTGAACTGGAATCTGTCCAACCCTGACCCCACCTCCAGCGAGTACATCACCCTGCTGAGAGATATCCAGGACAAGGTGACAACACTGTACAAGGGCTCCCAGCTGCACGATACCTTCAGATTTTGCCTGGTGACAAATCTGACAATGGATTCCGTGCTGGTGACCGTGAAGGCCCTGTTTAGCTCCAACCTGGACCCCTCCCTGGTGGAGCAGGTGTTCCTGGACAAGACACTGAACGCCAGCTTTCACTGGCTGGGCTCCACCTACCAGCTGGTGGACATCCACGTGACAGAGATGGAGAGCAGCGTGTACCAGCCTACCAGCTCCTCCAGCACCCAGCACTTTTACCTGAATTTCACAATCACCAACCTGCCTTACAGCCAGGACAAGGCCCAGCCCGGCACAACCAACTACCAGAGAAACAAGAGGAATATCGAGGACGCCCTGAATCAGCTGTTCAGGAACTCCAGCATCAAGTCCTACTTTTCCGATTGCCAGGTGTCCACCTTTAGAAGCGTGCCTAATAGACACCACACCGGCGTGGATAGCCTGTGTAATTTTTCCCCCCTGGCCAGAAGAGTGGACAGGGTGGCCATCTACGAGGAGTTTCTGAGAATGACCAGAAACGGCACCCAGCTGCAGAATTTTACCCTGGATAGAAGCTCCGTGCTGGTCGATGGCTACAGCCCTAACAGAAATGAGCCCCTGACCGGCAATTCCGATCTGCCTTTCTGGGCCGTGATCCTGATCGGCCTGGCCGGCCTGCTGGGCGTTATCACATGCCTGATCTGTGGCGTGCTGGTGACAACAAGAAGGAGGAAGAAGGAGGGCGAGTACAATGTGCAGCAGCAGTGCCCCGGCTACTACCAGTCCCACCTGGACCTGGAGGATCTGCAGGATTACAAGGACGACGATGACAAG (double strand) [1-kb duplex DNA]”, the binding result is recorded as “binds”.
